Experimental data: patent US12486302B2, “Somatostatin receptor antagonist compounds and methods of using the same” (CDRD VENTURES INC., priority 2016, dated 2025)
Some of these results come from one statement about several compounds together. *1 amine or outer side, *2 acyl side, *3 side chain or, on linkers, in order; H or OH if unused. Where a SMILES comes first, the peptide text is derived from it. Bridges are numbered along the chain shown (N, C = ends). Side-chain parts run from the residue outwards. [ ]: non-standard residue; d: D form. The star is where a group is joined. X1 = O=C([C@@H](Cc1ccc(NS(=O)(=O)c2ccccc2)cc1)N[*:1])[*:2]; dPhe(4-CH2NHCONH2) = NC(=O)NCc1ccc(C[C@@H](N)C(=O)O)cc1; X3 = O=C([C@@H](Cc1ccc(NCCN2CCOCC2)cc1)N[*:1])[*:2]; X2 = CCCCCNc1ccc(C[C@@H](N[*:1])C(=O)[*:2])cc1; dPhe(4-CH2NH2) = NCc1ccc(C[C@@H](N)C(=O)O)cc1; dPhe(4-NH2) = Nc1ccc(C[C@@H](N)C(=O)O)cc1; Phe(4-Cl) = N[C@@H](Cc1ccc(Cl)cc1)C(=O)O; d(hCit) = NC(=O)NCCCC[C@@H](N)C(=O)O; Ethyl(2-morpholino) = C1CN(CC*)CCO1; dCit = NC(=O)NCCC[C@@H](N)C(=O)O; Nicotinoyl = O=C(c1cccnc1)*; CO = O=C([*:1])[*:2]; NHPh = c1ccc(N*)cc1

Protein sequences, listed by entry. Tags and fused reporters are not part of them. Lines headed by an entry give the natural chain unless they say otherwise; changes in a name come on top.
UniProt P30874: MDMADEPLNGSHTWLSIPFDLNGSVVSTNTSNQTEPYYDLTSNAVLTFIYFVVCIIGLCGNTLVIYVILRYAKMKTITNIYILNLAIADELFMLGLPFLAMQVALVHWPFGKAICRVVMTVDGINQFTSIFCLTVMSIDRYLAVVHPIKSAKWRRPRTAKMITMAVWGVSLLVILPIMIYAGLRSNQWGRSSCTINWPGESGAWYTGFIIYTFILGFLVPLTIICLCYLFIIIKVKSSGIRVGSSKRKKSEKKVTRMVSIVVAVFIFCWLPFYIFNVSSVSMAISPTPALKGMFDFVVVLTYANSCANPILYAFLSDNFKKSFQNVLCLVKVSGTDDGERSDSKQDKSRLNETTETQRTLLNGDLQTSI

Biological target: somatostatin type 2 (SSTR2) receptors (Homo sapiens, UniProt P30874)
Experiment: PathHunter β-Arrestin assay, antagonist mode, SSTR2
Format: cell-based
Method: The PathHunter® β-Arrestin assay monitors the activation of a GPCR in a homogenous, non-imaging assay format using a technology developed by DiscoveRx called Enzyme Fragment Complementation (EFC) with β-galactosidase (β-Gal) as the functional reporter. […] EA is fused to β-Arrestin and […] is fused to the GPCR of interest. When the GPCR is activated and β-Arrestin is recruited to the receptor, ED and EA complementation occurs, restoring β-Gal activity which is measured using chemiluminescent PathHunter® Detection Reagents. For antagonist determination, cells were pre-incubated with the compounds followed by agonist challenge at the EC80 concentration. Data was normalized to the maximal and minimal response observed in the presence of EC80 ligand and vehicle. Compound activity was analyzed using CBIS data analysis suite ChemInnovation, CA). Percentage inhibition was calculated using the following formula: % Inhibition=100%×(1−(mean signal of test sample-mean signal of vehicle control)/(mean signal of EC80 control-mean signal of vehicle control)). Percentage inhibition was calculated at 10 concentrations in steps on a Log 3 scale ranging from […] to 5e-5 μM. The results were plotted for IC50 calculation.

`C[C@@H](O)[C@@H]1NC(=O)[C@H](CCCCN)NC(=O)[C@@H](Cc2ccc(C(N)=O)cc2)NC(=O)[C@H](Cc2ccc(O)cc2)NC(=O)[C@@H](NC(=O)[C@@H](N)Cc2ccc(Cl)cc2)CSSC[C@@H](C(=O)NC(Cc2ccc(O)cc2)C(N)=O)NC1=O` (stereo in doubt) [Compound 39, H-Cpa-cyclo[Cys- Tyr-D-(4- carbamoyl)Phe- Lys-Thr-Cys]- DTyr-NH2] was tested, and the “antagonistic activity with respect to SSTR2” value (from here on “antagonistic activity”) was “exhibited antagonistic activity”.
For `C[C@@H](O)[C@@H]1NC(=O)[C@H](CCCCN)NC(=O)[C@@H](Cc2ccc(C(N)=O)cc2)NC(=O)[C@H](Cc2ccc(O)cc2)NC(=O)[C@@H](NC(=O)[C@@H](N)Cc2ccc(Cl)cc2)CC=CC[C@@H](C(=O)N[C@H](Cc2ccc(O)cc2)C(N)=O)NC1=O` (stereo in doubt) [Compound 68], the “antagonistic activity” value was “exhibited antagonistic activity”.
In the case of `C[C@@H](O)[C@@H]1NC(=O)[C@H](CCCCN)NC(=O)[C@@H](CCCNC(N)=O)NC(=O)[C@H](Cc2ccc(O)cc2)NC(=O)[C@H](NC(=O)[C@@H](N)Cc2ccc(Cl)cc2)CSSC[C@@H](C(=O)N[C@H](Cc2ccc(O)cc2)C(N)=O)NC1=O` [Compound 1, H-Cpa-cyclo[D-Cys-Tyr-D-Cit-Lys-Thr-Cys]-D-Tyr-NH2] (H-[Phe(4-Cl)][dC]Y[dCit]KTC[dY]-NH2; disulfide 2-7), the “antagonistic activity” value is reported as “exhibited antagonistic activity”.
In the case of `C[C@@H](O)[C@@H]1NC(=O)[C@H](CCCCN)NC(=O)[C@@H](CCCCNC(N)=O)NC(=O)[C@H](Cc2ccc(O)cc2)NC(=O)[C@H](NC(=O)[C@@H](N)Cc2ccc(Cl)cc2)CSSC[C@@H](C(=O)N[C@H](Cc2ccc(O)cc2)C(N)=O)NC1=O` [Compound 2, H-Cpa-cyclo[DCys- Tyr-DHoCit-Lys- Thr-Cys]- DTyr-NH2] (H-[Phe(4-Cl)][dC]Y[d(hCit)]KTC[dY]-NH2; disulfide 2-7), the “antagonistic activity” value is reported as “exhibited antagonistic activity”.
`C[C@@H](O)[C@@H]1NC(=O)[C@H](CCCCN)NC(=O)[C@@H](CCCCNC(=O)c2cccnc2)NC(=O)[C@H](Cc2ccc(O)cc2)NC(=O)[C@H](NC(=O)[C@@H](N)Cc2ccc(Cl)cc2)CSSC[C@@H](C(=O)N[C@H](Cc2ccc(O)cc2)C(N)=O)NC1=O` [Compound 3, H-Cpa-cyclo[DCys- Tyr-D-(N^ϵ- nicotinoyl)Lys-Lys- Thr-Cys]-DTyr-NH2] (H-[Phe(4-Cl)][dC]Y[dK](Nicotinoyl)KTC[dY]-NH2; disulfide 2-7) was tested, and the “antagonistic activity” value was “exhibited antagonistic activity”.
`C[C@@H](O)[C@@H]1NC(=O)[C@H](CCCCN)NC(=O)[C@@H](Cc2ccc(C(N)=O)cc2)NC(=O)[C@H](Cc2ccc(O)cc2)NC(=O)[C@H](NC(=O)[C@@H](N)Cc2ccc(Cl)cc2)CSSC[C@@H](C(=O)N[C@H](Cc2ccc(O)cc2)C(N)=O)NC1=O` [Compound 4, H-Cpa-cyclo[D-Cys-Tyr-D-Phe(4-carbamoyl)-Lys-Thr-Cys]-D-Tyr-NH2] was tested, and the “antagonistic activity” value was “exhibited antagonistic activity”.
For `C[C@@H](O)[C@@H]1NC(=O)[C@H](CCCCN)NC(=O)[C@@H](Cc2ccc(CN)cc2)NC(=O)[C@H](Cc2ccc(O)cc2)NC(=O)[C@H](NC(=O)[C@@H](N)Cc2ccc(Cl)cc2)CSSC[C@@H](C(=O)N[C@H](Cc2ccc(O)cc2)C(N)=O)NC1=O` [Compound 5, H-Cpa-cyclo[DCys- Tyr-D-(4-aminomethyl)Phe- Lys-Thr-Cys]- DTyr-NH2] (H-[Phe(4-Cl)][dC]Y[dPhe(4-CH2NH2)]KTC[dY]-NH2; disulfide 2-7), the “antagonistic activity” value was “exhibited antagonistic activity”.
For `CC(=O)NCc1ccc(C[C@H]2NC(=O)[C@H](Cc3ccc(O)cc3)NC(=O)[C@H](NC(=O)[C@@H](N)Cc3ccc(Cl)cc3)CSSC[C@@H](C(=O)N[C@H](Cc3ccc(O)cc3)C(N)=O)NC(=O)[C@H]([C@@H](C)O)NC(=O)[C@H](CCCCN)NC2=O)cc1` [Compound 6, H-Cpa-cyclo[DCys- Tyr-D-(4- acetamido- methyl)Phe- Lys-Thr-Cys]-DTyr- NH2] (H-[Phe(4-Cl)][dC]Y[dPhe(4-CH2NH2)](Ac)KTC[dY]-NH2; disulfide 2-7), the “antagonistic activity” value was “exhibited antagonistic activity”.
For `C[C@@H](O)[C@@H]1NC(=O)[C@H](CCCCN)NC(=O)[C@@H](Cc2ccc(CNC(N)=O)cc2)NC(=O)[C@H](Cc2ccc(O)cc2)NC(=O)[C@H](NC(=O)[C@@H](N)Cc2ccc(Cl)cc2)CSSC[C@@H](C(=O)N[C@H](Cc2ccc(O)cc2)C(N)=O)NC1=O` [Compound 7, H-Cpa-cyclo[DCys- Tyr-D-(4- ureidomethyl) Phe-Lys- Thr-Cys]-DTyr-NH2] (H-[Phe(4-Cl)][dC]Y[dPhe(4-CH2NHCONH2)]KTC[dY]-NH2; disulfide 2-7), the “antagonistic activity” value was “exhibited antagonistic activity”.
`C[C@@H](O)[C@@H]1NC(=O)[C@H](CCCCN)NC(=O)[C@@H](Cc2ccc(NC(=O)CN)cc2)NC(=O)[C@H](Cc2ccc(O)cc2)NC(=O)[C@H](NC(=O)[C@@H](N)Cc2ccc(Cl)cc2)CSSC[C@@H](C(=O)N[C@H](Cc2ccc(O)cc2)C(N)=O)NC1=O` [Compound 8, H-Cpa-cyclo[DCys- Tyr-D-4-(Gly) Aph-Lys- Thr-Cys]-DTyr-NH2] (H-[Phe(4-Cl)][dC]Y[dPhe(4-NH2)](Gly)KTC[dY]-NH2; disulfide 2-7) was tested, and the “antagonistic activity” value was “exhibited antagonistic activity”.
With `CC(=O)NCC(=O)Nc1ccc(C[C@H]2NC(=O)[C@H](Cc3ccc(O)cc3)NC(=O)[C@H](NC(=O)[C@@H](N)Cc3ccc(Cl)cc3)CSSC[C@@H](C(=O)N[C@H](Cc3ccc(O)cc3)C(N)=O)NC(=O)[C@H]([C@@H](C)O)NC(=O)[C@H](CCCCN)NC2=O)cc1` [Compound 9, H-Cpa-cyclo[DCys- Tyr-D-4-(Gly- Ac)Aph- Lys-Thr-Cys]- DTyr-NH2] (H-[Phe(4-Cl)][dC]Y[dPhe(4-NH2)]([Gly-Ac])KTC[dY]-NH2; disulfide 2-7) the “antagonistic activity” value was “exhibited antagonistic activity”.
With `C[C@@H](O)[C@@H]1NC(=O)[C@H](CCCCN)NC(=O)[C@@H](Cc2ccc(NC(=O)[C@@H]3CCCN3)cc2)NC(=O)[C@H](Cc2ccc(O)cc2)NC(=O)[C@H](NC(=O)[C@@H](N)Cc2ccc(Cl)cc2)CSSC[C@@H](C(=O)N[C@H](Cc2ccc(O)cc2)C(N)=O)NC1=O` [Compound 10, H-Cpa-cyclo[DCys- Tyr-D-4-(Pro) Aph-Lys- Thr-Cys]- DTyr-NH2] (H-[Phe(4-Cl)][dC]Y[dPhe(4-NH2)](Pro)KTC[dY]-NH2; disulfide 2-7) the “antagonistic activity” value was “exhibited antagonistic activity”.
In the case of `C[C@@H](O)[C@@H]1NC(=O)[C@H](CCCCN)NC(=O)[C@@H](Cc2ccc(NCCN3CCOCC3)cc2)NC(=O)[C@H](Cc2ccc(O)cc2)NC(=O)[C@H](NC(=O)[C@@H](N)Cc2ccc(Cl)cc2)CSSC[C@@H](C(=O)N[C@H](Cc2ccc(O)cc2)C(N)=O)NC1=O` [Compound 11, H-Cpa-cyclo [DCys-Tyr- D-4-(2-(4- morpholinyl) ethyl)Aph- Lys-Thr-Cys]- DTyr-NH2] (H-[Phe(4-Cl)][dC]Y[X3]KTC[dY]-NH2; disulfide 2-7), the “antagonistic activity” value is reported as “exhibited antagonistic activity”.
`CCCCCNc1ccc(C[C@H]2NC(=O)[C@H](Cc3ccc(O)cc3)NC(=O)[C@H](NC(=O)[C@@H](N)Cc3ccc(Cl)cc3)CSSC[C@@H](C(=O)N[C@H](Cc3ccc(O)cc3)C(N)=O)NC(=O)[C@H]([C@@H](C)O)NC(=O)[C@H](CCCCN)NC2=O)cc1` [Compound 12, H-Cpa-cyclo[D-Cys-Tyr-D-Phe(4-n-pentylamino)-Lys-Thr-Cys]-D-Tyr-NH2] (H-[Phe(4-Cl)][dC]Y[X2]KTC[dY]-NH2; disulfide 2-7) was tested, and the “antagonistic activity” value was “exhibited antagonistic activity”.
For `C[C@@H](O)[C@@H]1NC(=O)[C@H](CCCCN)NC(=O)[C@@H](Cc2ccc(OCCN3CCOCC3)cc2)NC(=O)[C@H](Cc2ccc(O)cc2)NC(=O)[C@H](NC(=O)[C@@H](N)Cc2ccc(Cl)cc2)CSSC[C@@H](C(=O)N[C@H](Cc2ccc(O)cc2)C(N)=O)NC1=O` [Compound 13, H-Cpa-cyclo[DCys- Tyr-D-(2-(4- morpholinyl)ethyl) Tyr-Lys-Thr- Cys]-DTyr-NH2] (H-[Phe(4-Cl)][dC]Y[dY](Ethyl(2-morpholino))KTC[dY]-NH2; disulfide 2-7), the “antagonistic activity” value was “exhibited antagonistic activity”.
In the case of `C[C@@H](O)[C@@H]1NC(=O)[C@H](CCCCN)NC(=O)[C@@H](Cc2ccc(NS(=O)(=O)c3ccccc3)cc2)NC(=O)[C@H](Cc2ccc(O)cc2)NC(=O)[C@H](NC(=O)[C@@H](N)Cc2ccc(Cl)cc2)CSSC[C@@H](C(=O)N[C@H](Cc2ccc(O)cc2)C(N)=O)NC1=O` [Compound 14, H-Cpa-cyclo[DCys- Tyr-D-4- (benzenesulfonyl) Aph-Lys-Thr- Cys]-DTyr-NH2] (H-[Phe(4-Cl)][dC]Y[X1]KTC[dY]-NH2; disulfide 2-7), the “antagonistic activity” value is reported as “exhibited antagonistic activity”.
With `C[C@@H](O)[C@@H]1NC(=O)[C@H](CCCCN)NC(=O)[C@@H](Cc2ccc(NC(=O)Nc3ccccc3)cc2)NC(=O)[C@H](Cc2ccc(O)cc2)NC(=O)[C@H](NC(=O)[C@@H](N)Cc2ccc(Cl)cc2)CSSC[C@@H](C(=O)N[C@H](Cc2ccc(O)cc2)C(N)=O)NC1=O` [Compound 15, H-Cpa-cyclo[D-Cys-Tyr-D-Phe(4-phenylureido)-Lys-Thr-Cys]-D-Tyr-NH2] (H-[Phe(4-Cl)][dC]Y[dPhe(4-NH2)]([CO-NHPh])KTC[dY]-NH2; disulfide 2-7) the “antagonistic activity” value was “exhibited antagonistic activity”.
